Data taken from PubChem BioAssay AID1745846 (National Center for Advancing Translational Sciences (NCATS), 2022).
The campaign covered roughly 1,400 compounds. About 30 (2%) were called active. Roughly 15% stayed inconclusive and do not appear here. Calls follow the shape of the dose curve; as a rule, active = well fitted inhibition curve with a large enough effect; inconclusive = small, poorly fitted or top-dose-only effect; inactive = flat fitted curve, though single readings scatter. Some of the results follow.

experiment: Firefly Luciferase Counterscreen for Inhibitors of ATXN expression; conditions: luminescence; series mostly up to 57.5 µM; activity change, negative = inhibition: at the top concentration
In short: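 Recombinant firefly luciferase at 10 nM final in 50 mM Tris pH 7.5, 10 mM MgCl2, 0.05% BSA, 0.01% Tween20 with substrate; compounds up to 57 uM final, 10 min room temperature, end-point luminescence. Buffer-only wells define 100% inhibition.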
% is scaled to controls: 0 for no effect and ±100 for the full control effect.

SMILES | activity change, negative = inhibition
CCOc1ccc2[nH]c3c(NCCc4ccc(OC)c(OC)c4)ncnc3c2c1 | inactive: -10.5%
COC(=O)c1cn(NC(=O)c2cc([N+](=O)[O-])ccc2F)c(=O)c2ccccc12 | inactive: -8.85%
Cc1ccc(O)c(CNCCNCc2cc(C)ccc2O)c1 | inactive: 1.05%
CCC(C)n1cnc2c(c1=O)c1nc3ccccc3nc1n2-c1ccc2c(c1)OCCO2 (stereo not given) | inactive: 0.0963%
COc1ccc(-c2n[nH]c(C)c2-c2cnn(-c3ccccc3)c2)c(O)c1C | inactive: -6.79%
CCCCOc1ccc(C(=O)NNC(=O)c2cnccn2)cc1OC | inactive: -3.21%
COc1ccc(-c2n(CC(=O)OC3CC(C)CCC3C(C)C)c3ccccc3[n+]2C)cc1 (stereo not given) | inactive: 2.95%
O=C(Cn1c(=O)n(CC(=O)NCc2ccccc2)c2ccccc21)NCc1ccccc1 | inactive: 2.51%
Nc1nc(NCCc2ccccc2)nc(NCc2ccccc2)c1[N+](=O)[O-] | inactive: 0.017%
COc1cnc(-c2ccccn2)nc1NC(C)C | inactive: -10.4%
Cc1cc(N/N=C/c2ccccc2[N+](=O)[O-])nc(-n2nc(C)cc2C)n1 | inactive: -3.89%
COc1cccc(/C=N/NC(=O)c2c(C)nc3ccc(Cl)cn23)c1O | inactive: -11.2%
Cc1[nH]c(-c2ccc(F)cc2)cc1C(=O)N1CCN(c2ccc(Cl)cc2)CC1 | inactive: -0.881%
CCCC(=O)NC(c1ccccc1)c1ccc2cccnc2c1O (stereo not given) | inactive: -0.137%
COc1ccc2c(c1)CC(N1CCN(C)CC1)c1cc(OC)ccc1S2 (stereo not given) | inactive: 2.8%
COc1cc(C=CC(=O)c2cc(OC)c(OC)c(OC)c2)cc(OC)c1OC | inactive: 5.64%
CCOc1ccccc1C(=O)Nc1ccc2nc(N3CCN(c4ncccn4)CC3)cc(C)c2c1 | inactive: 1.06%
COc1ccc(N2CCN(c3nc(NCCc4ccc(OC)c(OC)c4)nc(OC)n3)CC2)cc1 | inactive: -15.5%
CC(C)NC1CCC(Nc2ccnc3cc(Cl)ccc23)CC1 (stereo not given) | inactive: -0.16%
COc1ccc(CN(C)C(=O)c2cccc(NC(=O)CC3SC(N4CCCCC4)=NC3=O)c2)c(OC)c1 (stereo not given) | inactive: -10.8%
CC(C)[C@H](NC(=O)c1ccc(C(C)(C)C)cc1)C(=O)N1CCN(Cc2ccc3c(c2)OCO3)CC1 | inactive: -0.972%
Clc1ccc(C[n+]2cc(-c3ccccc3)n3c2CCCCC3)c(Cl)c1 | inactive: 5.15%
CCc1nc2c(OCCOc3ccc(F)cc3)cccn2c1N(C)C(=O)c1ccco1 | inactive: -1.23%
CCCCC(=O)OCC(=O)C1(O)Cc2c(O)c3c(c(O)c2C(OC2CC(NC(=O)C(F)(F)F)C(O)C(C)O2)C1)C(=O)c1c(OC)cccc1C3=O (stereo not given) | inactive: -11.2%
CCCCCn1c(=O)c2ccccc2n2c(CCl)nnc12 | inactive: -2.32%

SMILES | activity change, negative = inhibition
CN(C)CCCN(C(=O)CCc1ccccc1)c1nc2ccc(Br)cc2s1 | inactive: 1.42%
CCCCn1c(SCc2ncc(-c3ccccc3)o2)nc2cc(S(N)(=O)=O)ccc21 | inactive: -13.5%
c1cnc2c(c1)ccc1cccnc12 | inactive: -2.17%
NC(N)=N/N=C/c1ccc2cccc(OCc3ccccc3)c2n1 | inactive: -14.9%
CCN(CC)c1nc(-c2ccccn2)nc(-c2ccccc2)c1C#N | inactive: -0.0048%
Cc1nn(Cc2c(F)c(F)c(F)c(F)c2F)c(C)c1NC(=O)c1ccc(COc2ccc(Cl)cc2Cl)o1 | inactive: -10.4%
Cc1ccc(NC(=O)CCC(=O)c2cc(C)sc2C)nc1 | inactive: -2.63%
CCC1(c2ccccc2)ON(c2c(Br)cccc2Br)C1=O (stereo not given) | inactive: -0.992%
CCc1nnc(NC(=O)c2ccc(S(=O)(=O)N(C)Cc3ccccc3)cc2)o1 | inactive: -15.9%
Oc1ccc(Cl)c2cccnc12 | inactive: -5.94%
CCC1(O)C(=O)OCc2c1cc1n(c2=O)Cc2cc3cc(O)ccc3nc2-1 (stereo not given) | inactive: -0.433%
CN(Cc1ccccc1)C(=O)c1ccc(NC(=O)C2CCN(C(=O)OC(C)(C)C)CC2)cc1 | inactive: -1.39%
CN(C)CCNc1ncnc2c1sc1nc(N3CCCC3)c3c(c12)CC(C)(C)OC3 | inactive: -3.37%
CCCCc1ccc(NC(=O)N2CCN(c3cc(C)nc4ccccc34)CC2)c(C)c1 | inactive: 8.86%
Oc1c(C(Nc2ccccn2)c2ccccn2)ccc2cccnc12 (stereo not given) | inactive: -6.3%
COc1ccc(C2CC(c3ccccc3Cl)=NN2c2ccc(S(N)(=O)=O)cc2)cc1 (stereo not given) | inactive: -1.62%
O=C(Nc1ccc(CN2CCCCC2)cc1)Nc1ccc(Br)cc1Cl | inactive: -1.96%
CSCc1nnc(NC(=O)c2ccc(S(=O)(=O)N3CCCCC3C)cc2)o1 (stereo not given) | inactive: -18.2%
COc1ccc(-c2nn(-c3ccccc3)cc2C(=O)NC(=S)NNC(=O)c2ccncc2)cc1 | inactive: -14.7%
Cc1sc2cc3c(c(C(=O)c4ccccc4)[n+]2c1C)-c1cccc2cccc-3c12 | inactive: -4.87%
COc1cccc(/C=N/NC(=O)c2cc3c(OC)cccc3[nH]2)c1O | inactive: -7.79%
CC(C)c1ccc2c(c1)C(N1CCNCC1)Cc1ccc(F)cc1S2 (stereo not given) | inactive: 10.3%
Cc1onc(-c2c(Cl)cccc2Cl)c1C(=O)N/N=C(\N)COc1ccc(Cl)cc1 | inactive: 0.402%
COc1ccccc1N1CCN(c2ccnc3cc(Cl)ccc23)CC1 | inactive: -1.87%
Cc1ccccc1N1CCN(Cc2c[nH]c3ccccc23)CC1 | inactive: 1.59%
